Laboratory results: US20230374534A1 (INDUSTRY ACADEMIC COOPERATION FOUNDATION GYEONGSANG …, published 2023)

Target: the molecule itself
Assay: non-reducing SDS-PAGE and western blot of recombinant His-CBF1; self-association through disulfide bonds, dissociated by DTT (FIG. 2A)
Experimental: FIGS. 2A and 2B show the western blot analysis of purified His-CBF1 incubated with 1 mM DTT or H₂O₂ (FIG. 2A) and with a Trx system containing 0.5 mM NADPH, 1 μM Trx reductase, and 5 μM Trx-h2 or Trx-h2(C/S) (FIG. 2B) at 25° C. for 30 min. Structural changes in CBF1 were analyzed by SDS-PAGE on non-reducing gels. FIGS. 2C and 2D show the western blot analysis of Trx-h2-mediated structural dissociation of CBF1 in CBF1-Myc^OE/Col-0 (FIG. 2C) and CBF1-Myc^OE/trx-h2 (FIG. 2D) plants exposed to cold. […]
Redox-dependent structural modification of CBF1 was examined in vitro using purified recombinant His-CBF1 or His-CBF1(C/S) protein incubated with H₂O₂ (oxidizing agent) or DTT (reducing agent) at 25° C. for 15 min. The effect of the reducing power of Trx-h2 on His-CBF1 was analyzed at 25° C. for 30 min using a Trx system containing NADPH, Trx reductase, and either Trx-h2 or Trx-h2(C/S). Proteins were separated by SDS-PAGE on reducing and non-reducing gels, and protein structures were detected by western blotting with anti-His (Abcam, Cambridge, MA, USA) and anti-Trx-h2 antibodies. The structural switching of CBF1 was also analyzed in vivo using 2-week-old CBF1-Myc^OE/Col-0 plants.

B1: His-CBF1 (histidine-tagged C-repeat-binding transcription factor 1), recombinant (other)
chain: MNSFSAFSEMFGSDYEPQGGDYCPTLATSCPKKPAGRKKFRETRHPIYRGVRQRNSGKWVSEVREPNKKTRIWLGTFQTAEMAARAHDVAALALRGRSACLNFADSAWRLRIPESTCAKDIQKAAAEAALAFQDETCDTTTTNHGLDMEETMVEAIYTPEQSEGAFYMDEETMFGMPTLLDNMAEGMLLPPPSVQWNHNYDGEGDGDVSLWSY
notes: Transcription factor; It forms disulfide-linked oligomers of several sizes on non-reducing gels; also called His-CBFs; not shown: His tag from the pET28a vector
  binding result: binds
